In publication PMC2346455:
No constants are given. Whether binding was seen depends on the method and setting.

Target: T1, Filgrastim reference standard (rhG-CSF, NIBISC) (human), P09919
T1 chain: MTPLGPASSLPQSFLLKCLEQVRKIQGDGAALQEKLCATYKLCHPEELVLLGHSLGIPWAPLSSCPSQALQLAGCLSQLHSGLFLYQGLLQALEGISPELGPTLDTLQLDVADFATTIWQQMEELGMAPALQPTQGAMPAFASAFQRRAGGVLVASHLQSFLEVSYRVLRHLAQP
Test: SEC; size-exclusion HPLC, BioSep-SEC 2000 column, room temperature, mobile phase 0.1 M phosphoric acid pH 2.5, 1 mL/min, 200 μg mL^-1 of sample or standard loaded, detection at 214 nm; both purified
Conditions: remark: other sources report otherwise

binding: no binding (tested: 200 μg mL^-1)
B1: Filgrastim reference standard (rhG-CSF, NIBISC), P09919-2 31-204 (protein)
chain: T1 chain
